# Laboratory results taken from ChEMBL document CHEMBL1145968, “3-(alphaR)-alpha-((2S,5R)-4-allyl-2,5-dimethyl-1-piperazinyl)-3-hydroxybenzyl)-N-alkyl-N-arylbenzamides: potent, non-peptidic agonists of both the micro and delta opioid receptors” (J Med Chem, 2003).
# Species on record: Mus musculus
# Assay: Inhibition of the electrically induced muscle contractions was determined using the mouse vas deferens
# Type: functional
# Outline: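 Vas deferens segments in Krebs buffer, placed between platinum electrodes with isometric force recording at 0.5 g resting tension. Stimulated with 400 ms trains (1 ms pulses, 10 Hz, supramaximal voltage). Cumulative concentrations were each allowed maximal effect before the next.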
smiles,measurement,value
CN1CC[C@]23c4c5ccc(O)c4O[C@H]2[C@@H](O)C=C[C@H]3[C@H]1C5 [MORPHINE],EC50,19.7 µM
